Measurements: PMC10011557
These are yes or no findings as the source states them, for the method shown. Some results given as binding are weak or reduced against the parent protein; the word gives no strength. Sequences can lack the tags named with a protein.

Target: T1, GST-PPP6C protein (UniProt O00743)
T1 sequence: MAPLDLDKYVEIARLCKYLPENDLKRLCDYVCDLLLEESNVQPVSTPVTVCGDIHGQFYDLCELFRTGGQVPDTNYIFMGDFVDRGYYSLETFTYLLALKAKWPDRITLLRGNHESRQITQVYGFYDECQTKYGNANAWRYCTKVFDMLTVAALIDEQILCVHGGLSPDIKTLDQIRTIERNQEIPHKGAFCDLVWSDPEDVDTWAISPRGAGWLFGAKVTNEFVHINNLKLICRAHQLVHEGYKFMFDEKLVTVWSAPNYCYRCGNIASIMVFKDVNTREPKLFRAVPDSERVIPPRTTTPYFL
Assay: pull-down; 3 μg of each recombinant protein mixed, 37 °C 1 h in 25 mM Tris pH 8.0, 150 mM NaCl, 2 mM DTT, 1 mg/ml BSA; GST-PPP6C captured with anti-PP6C antibody and Protein G agarose beads, Western blotting; both purified

binding: binds
B1: recombinant Myc-PPP6R3 protein (protein, UniProt Q5H9R7 1-873)
chain: MFWKFDLHSSSHIDTLLEREDVTLKELMDEEDVLQECKAQNRKLIEFLLKAECLEDLVSFIIEEPPQDMDEKIRYKYPNISCELLTSDVSQMNDRLGEDESLLMKLYSFLLNDSPLNPLLASFFSKVLSILISRKPEQIVDFLKKKHDFVDLIIKHIGTSAIMDLLLRLLTCIEPPQPRQDVLNWLNEEKIIQRLVEIVHPSQEEDRHSNASQSLCEIVRLSRDQMLQIQNSTEPDPLLATLEKQEIIEQLLSNIFHKEKNESAIVSAIQILLTLLETRRPTFEGHIEICPPGMSHSACSVNKSVLEAIRGRLGSFHELLLEPPKKSVMKTTWGVLDPPVGNTRLNVIRLISSLLQTNTSSINGDLMELNSIGVILNMFFKYTWNNFLHTQVEICIALILASPFENTENATITDQDSTGDNLLLKHLFQKCQLIERILEAWEMNEKKQAEGGRRHGYMGHLTRIANCIVHSTDKGPNSALVQQLIKDLPDEVRERWETFCTSSLGETNKRNTVDLVTTCHIHSSSDDEIDFKETGFSQDSSLQQAFSDYQMQQMTSNFIDQFGFNDEKFADQDDIGNVSFDRVSDINFTLNTNESGNIALFEACCKERIQQFDDGGSDEEDIWEEKHIAFTPESQRRSSSGSTDSEESTDSEEEDGAKQDLFEPSSANTEDKMEVDLSEPPNWSANFDVPMETTHGAPLDSVGSDVWSTEEPMPTKETGWASFSEFTSSLSTKDSLRSNSPVEMETSTEPMDPLTPSAAALAVQPEAAGSVAMEASSDGEEDAESTDKVTETVMNGGMKETLSLTVDAKTETAVFKSEEGKLSTSQDAACKDAEECPETAEAKCAAPRPPSSSPEQRTGQPSAPGDTSVNGPV
